# Screen size: about 31,000 sequences; about 1,400 (4.5%) were called active.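 Rule for the calls: active = median seed-adjusted z-score above 1 or below -1; inactive = the rest.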 Some of the results follow.
# Experiment: Novel Modifiers of Survival Motor Neuron (SMN) Protein: Gene Identification via Genome-wide siRNA Screen;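 note: luminescence tracks full-length SMN protein made from the SMN2 reporter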
# Conditions: HEK293T SMN2-luciferase reporter, siRNA knockdown, 72 h; actives lie on both sides
# Outline: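 HEK293T cells stably expressing an SMN2 splicing/cDNA-luciferase reporter were reverse-transfected with a druggable-genome siRNA library and read by luminescence at 72 hours; hits defined by MAD score above 1.0 or below -1.0.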
row,Sequence,median seed-adjusted z-score
1,CCAUUUGGAUCCCACCUUCTT against FCGR2A,inactive: -0.19
2,GCUACUACCAGGAAUUCAATT against ATP4A,inactive: 0
3,GCAAGAUCUGAUGCACAUATT against NUAK2,inactive: -0.0601
4,GAUAAUUCCAAGUCCAUGATT against NEUROD6,inactive: -0.261
5,GCAACAGCAUGUCAUAGAATT against CCT5,inactive: 0
6,CCACGACUCUGGAAACUAUTT against IL6R,inactive: -0.441
7,GUUGUGAUGUGAAAUCGAATT against NCAM2,inactive: 0.192
8,CAUUGGAAAUGAUAUCGUATT against SIPA1L1,inactive: 0.0925
9,AGAUCCUGCGCUAUGAGAATT against SCN1B,inactive: 0.331
10,GGAGCGUGUUUACAAUGUATT against MSR1,inactive: 0.0743
11,UGAUUACGAGGUUCAUGUATT against RAB6B,inactive: 0
12,GAGCGGACAUGAUAAGCAUTT against CD302,inactive: 0.0818
13,UCGCUUCACUGUGCACAUATT against SNX15,inactive: -0.152
14,CCAUAUUACAAGAAUACGATT against RFK,inactive: -0.00532
15,CAUAUUCUCUGUUCACAAUTT against HRH4,inactive: 0.247
16,GAAUUGACUGUAGAUCCAATT against KIF2A,inactive: 0.289
17,AAUCUUCUUUUAUCCACAATT against VN1R5,inactive: 0.177
18,GGAUGUCUCAGAUUUAACATT against TAF11,inactive: -0.848
19,GAGAAACCGCUUUCCUUCATT against APOBEC3H,inactive: 0.256
20,GCAAGCUGGUGUCUCCCAATT against MLXIPL,inactive: 0
21,GGUUGGAUUCGGAACUGAATT against KRT1,inactive: -0.362
22,CCAUCUCACUGACCAUUGUTT against ALOX12B,inactive: 0.0071

row,Sequence,median seed-adjusted z-score
1,GGUGUCUAAUCAAGACGUATT against ITPR2,inactive: 0
2,GAUCAUCUCUGAAACAGCATT against GYG1,inactive: 0.119
3,GUGCCUAUGUCAUCGUAUATT against REM1,inactive: 0.231
4,CUGUCACACUUGCAACUCUTT against ISLR2,inactive: 0.263
5,GGUAUUGUCAUGUCCUAUATT against ACADL,inactive: 0.223
6,CGAUAGAUCAAGCACUAUUTT against ZBTB33,inactive: 0.164
7,CGAGAAGGACGGUGAGAAATT against PITPNA,inactive: -0.225
8,GGAGAUGCAUUACGUUUCATT against FGL2,inactive: 0
9,CAAGCACUGUUGACAACAATT against XPO4,inactive: 0.616
10,GGACGGUCUUUAUAGAUGUTT against MORC4,inactive: 0.13
11,GAAUGCGAAGUGGAAGAAATT against WFDC6,inactive: 0.0443
12,GACGGAUCCUAAUAGACAATT against IGSF10,inactive: -0.0992
13,CAAAAAUGCGUGGAACUUUTT against SNRPB2,inactive: -0.967
14,CCAAUGUUGUGGUAAAGCUTT against ERMP1,inactive: 0.231
15,CCUCGAUUGUCUUCCGGAATT against UBA7,active: 2.41
16,UGAACUGAUUAACAUAAUATT against MCFD2,inactive: -0.0111
17,GUCACUUGGUUUUACUCAATT against OTOG,inactive: -0.344
18,CCGUAGCAAAGGAACAGCATT against ITGB1,inactive: 0
19,CCGAAACCGUGGACAUGUUTT against UBE4B,inactive: -0.0364
20,GACACUACCUUUCCGAGGATT against MEPCE,inactive: -0.35
21,CGCUCUACAUGGUCCGGUUTT against CA7,inactive: -0.0754
22,GCGAGCAUAUAUUCCUAGATT against RIOK1,inactive: 0.0528

row,Sequence,median seed-adjusted z-score
1,GAAUCAUGGGUAAAUCGAATT against SERINC3,inactive: 0.29
2,GGCAAAGGUUUAUUCCAGATT against KLK10,inactive: -0.902
3,GGCAGACUUUCUACAUGCATT against NSF,inactive: -0.0728
4,GAUCUGAUUCUAUUGCGUATT against ADD1,inactive: -0.0129
5,GCGAAGUGUUUGUAAAUCATT against PTPN4,inactive: -0.447
6,CGACAAUAAAGACCAAGUUTT against CYTH1,inactive: 0.348
7,GCUUUAUGAUGGAGUUGAATT against FANCL,inactive: -0.0823
8,CAGAUACACUUGGAAGUAUTT against SLC30A7,inactive: 0.0492
9,GGCUUCUUCUCAUAUCGGUTT against ATL3,inactive: 0.201
10,CCGGCAAGAUUAUCGAGUATT against HCFC1,active: 1.47
11,GCCUUUACGUGAUACUAGUTT against EXTL3,inactive: -0.353
12,GGAAUUGUCCAGUCAAGUATT against GABRA1,inactive: -0.405
13,CAAUCGUCCAAUGAUCUUATT against PCDHB1,inactive: 0.342
14,GGCAAUUCCAUGUAAGGAATT against MPP7,inactive: 0.163
15,GCGGAGCAUUUGCAACAAATT against NR6A1,inactive: -0.287
16,GGGAGAAUUUUGGAACCGATT against KLHL5,inactive: 0.48
17,GUCUGGACAUGUUAGCUGATT against ANP32B,inactive: 0
18,GGAUCGGAUGGAUAAGAAUTT against CTTN,inactive: -0.314
19,CAAUCGCAAACUUACCAAATT against ANP32A,inactive: 0.377
20,GACAGGACGUGAACAUGCATT against SLC22A18AS,inactive: 0.0382
21,CGUAAAACCCAUCAAGUUUTT against B3GALNT1,inactive: 0.128
22,CGGCUUGCCUAGUUCUCUATT against TOP3A,inactive: 0.474

row,Sequence,median seed-adjusted z-score
1,CAACUGUUAUCAGAACGAUTT against ARFIP2,inactive: 0.748
2,GAUUGUGAUGGAGACCGUUTT against IKBKG,inactive: -0.615
3,CAACCACACUAACGAGAUUTT against GLRX,inactive: -0.0561
4,CGACAGAUAUUACAACGAATT against ROBO3,inactive: 0.131
5,GCAUUAUCUUUACAGGCUUTT against SLC22A15,inactive: -0.137
6,GCUCAGCCCUUACUGUACATT against ZNF569,inactive: 0.425
7,GCUGUUCCGGCAUUACUAUTT against GPR108,inactive: 0.369
8,GUGGGACUGUAUUACAACATT against SLC6A19,inactive: 0.478
9,GAUGUUAGCGAGUACCCAATT against LAMA1,inactive: 0.494
10,CAAAGGAUUAUGGAACUAATT against UMPS,inactive: 0.191
11,GGAUCUAAACCAUCCAGAUTT against MAP7,inactive: -0.22
12,GCAAUAGUAUUAUUCUGCUTT against PHTF2,inactive: 0.389
13,GAGUGUCAUAUAAACGAAUTT against VLDLR,inactive: 0.0487
14,GGUAUGACAUCGAUAGUGATT against IGSF1,inactive: 0.258
15,GCCCACUACCAGUUCCUGUTT against DUSP23,inactive: -0.537
16,GCAUUAUCUCGCCUUAUAATT against ZNF491,inactive: 0.0642
17,GGAAGAAUUCAAUACGGCATT against FOXJ2,inactive: -0.627
18,CGGUGCCCAGCAUACUCAATT against NR0B2,inactive: -0.374
19,GUGUUUAAGGGCUUUUGAATT against CBR3,inactive: 0.057
20,CCAGCAAGCAAUUUCCUAUTT against OLR1,inactive: 0
21,GCUUGUUUGAGGAAGCAGATT against ADSSL1,inactive: 0.0976
22,CCAUGGAUAUUGACCAUAUTT against SEC14L3,inactive: 0.308

# Quoted from above (five entries):
row,Sequence,median seed-adjusted z-score
9,GAUGUUAGCGAGUACCCAATT against LAMA1,inactive: 0.494
10,CAAAGGAUUAUGGAACUAATT against UMPS,inactive: 0.191
11,GGAUCUAAACCAUCCAGAUTT against MAP7,inactive: -0.22
12,GCAAUAGUAUUAUUCUGCUTT against PHTF2,inactive: 0.389
13,GAGUGUCAUAUAAACGAAUTT against VLDLR,inactive: 0.0487

# Further entries follow.

row,Sequence,median seed-adjusted z-score
1,CUGUGACUUUUAUGCGAAATT against LIMS3,inactive: -0.078
2,AAGACUAUGCUGAACCGAATT against DCXR,inactive: -0.394
3,UCACCUCUCUGAGUAGCUUTT against ACTRT2,inactive: -0.117
4,CGUGGAUUCUGCUAAGGGATT against MLKL,inactive: 0
5,GGCCUUUACAGUGCUCCAATT against ZFP14,inactive: 0.263
6,GCAGAGAUUUCUUGACGUATT against ZFPM2,inactive: 0.087
7,GGAACAGUCCUGUUGCAUATT against SLC24A1,inactive: 0.372
8,CGGUCAUCUCAGCCGAGAATT against TUBA3C,inactive: -0.0806
9,CCACCUUCAUUCUCAACUUTT against NFKB1,inactive: 0.31
10,UCAUGCUCAUUGGGAAUAATT against RAB2B,inactive: 0.882
11,CCAACAUAGAACUCGCGGATT against PIGK,inactive: -0.456
12,AGGCCUAUAUUGAAGGAGATT against DGKG,inactive: 0.227
13,GCAGUGAGAUCGAUAGCAATT against CTNND2,inactive: -0.0491
14,GCACCAAUGUAGACAUUGUTT against ZFY,inactive: -0.128
15,GAGAUUUGUUUACACGCUUTT against RPS6KA3,inactive: -0.0233
16,GAAUAGAGGAUAUCCUUGATT against KYNU,inactive: 0.00735
17,UGGACAUGAUCAAAAAUAATT against COL6A1,inactive: 0.509
18,CCGUCUUCAUUUUGUCAGATT against ATP2C2,inactive: -0.302
19,UGAUGACAAAGACGGCAAATT against THOC3,inactive: 0.689
20,GGAUGUUGAUGAAGGCAAATT against LDHAL6A,inactive: -0.15
